Measured data: PubChem BioAssay AID504764 (Drosophila RNAi Screening Center, 2011)

Screen: 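Genes whose knock-down alters Notch-dependent transcription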 (primary screen)
Cells: Drosophila Kc167 cells
Reagent: long dsRNA against Drosophila genes
Duration: about 5 days (4 days dsRNA, then 24 h after transfection)
Conditions: transfection of constitutively active membrane-tethered Notch lacking the extracellular domain, read 24 h later
Read-out: 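Firefly luciferase from an E(spl)m3 reporter with active Notch, plus control-promoter and uninduced reporter wells for normalisation; unnormalised counts, duplicate wells a and b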
Reading the numbers: induced reporter light, run 1, well a and induced reporter light, run 1, well b: higher = more light from the Notch target reporter with active Notch; control promoter light, run 1, well a and control promoter light, run 1, well b: higher = more light from the viral control promoter (cell number, transfection, viability); uninduced reporter light, run 1, well a: higher = more light from the Notch target reporter without active Notch
Hit rule: 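Hit if the duplicate-averaged log2 ratio of induced to control-promoter light gives a plate-wise z beyond ±2, or induced to uninduced beyond ±1.8; weak-control or discordant-duplicate wells dropped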
Meaning of the calls: active = modifier hit (raised or lowered Notch signal); inactive = not a hit
The deposit covers about 22,000 reagents; shown is an unselected part of those that have a named target and a result. In the full data, 403 (1.9%) got an active call. 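Unnormalised raw counts per well; ratio z-scores behind the hit calls and whether each hit raises or lowers signal are not deposited.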 Not given: the amount of reagent.

The opening 2 records, to show the layout:
Rgk2 (Rad, Gem/Kir family member 2) [DRSC06503] — induced reporter light, run 1, well a = 40665; induced reporter light, run 1, well b = 24255; control promoter light, run 1, well a = 42360; control promoter light, run 1, well b = 44625; uninduced reporter light, run 1, well a = 3865; activity call = inactive
Tim23 (Translocase of inner mitochondrial membrane 23) [DRSC21240] — induced reporter light, run 1, well a = 57365; induced reporter light, run 1, well b = 59590; control promoter light, run 1, well a = 87215; control promoter light, run 1, well b = 78650; uninduced reporter light, run 1, well a = 4775; activity call = inactive

The list itself, from the start:
Rgk2 (Rad, Gem/Kir family member 2) [DRSC06503] — induced reporter light, run 1, well a = 40665; induced reporter light, run 1, well b = 24255; control promoter light, run 1, well a = 42360; control promoter light, run 1, well b = 44625; uninduced reporter light, run 1, well a = 3865; activity call = inactive
Tim23 (Translocase of inner mitochondrial membrane 23) [DRSC21240] — induced reporter light, run 1, well a = 57365; induced reporter light, run 1, well b = 59590; control promoter light, run 1, well a = 87215; control promoter light, run 1, well b = 78650; uninduced reporter light, run 1, well a = 4775; activity call = inactive
Slmap (Sarcolemma associated protein) [DRSC03799] — induced reporter light, run 1, well a = 34310; induced reporter light, run 1, well b = 24895; control promoter light, run 1, well a = 30390; control promoter light, run 1, well b = 20470; uninduced reporter light, run 1, well a = 1990; activity call = inactive
CG10063 [DRSC09688] — induced reporter light, run 1, well a = 3.39e5; induced reporter light, run 1, well b = 2.64e5; control promoter light, run 1, well a = 3.51e5; control promoter light, run 1, well b = 3.95e5; uninduced reporter light, run 1, well a = 14110; activity call = inactive
CG5068 [DRSC10476] — induced reporter light, run 1, well a = 1.21e5; induced reporter light, run 1, well b = 1.14e5; control promoter light, run 1, well a = 66890; control promoter light, run 1, well b = 25755; uninduced reporter light, run 1, well a = 10932; activity call = inactive
mRpS18A (mitochondrial ribosomal protein S18A) [DRSC14369] — induced reporter light, run 1, well a = 73295; induced reporter light, run 1, well b = 80385; control promoter light, run 1, well a = 67365; control promoter light, run 1, well b = 48455; uninduced reporter light, run 1, well a = 6078; activity call = inactive
MED28 (Mediator complex subunit 28) [DRSC15721] — induced reporter light, run 1, well a = 1.18e5; induced reporter light, run 1, well b = 1.32e5; control promoter light, run 1, well a = 1.23e5; control promoter light, run 1, well b = 1.40e5; uninduced reporter light, run 1, well a = 11700; activity call = inactive
Ndc1 (Nuclear division cycle 1) [DRSC15895] — induced reporter light, run 1, well a = 280; induced reporter light, run 1, well b = 332; control promoter light, run 1, well a = 415; control promoter light, run 1, well b = 695; uninduced reporter light, run 1, well a = 45; activity call = inactive
CG34204 [DRSC03897] — induced reporter light, run 1, well a = 73135; induced reporter light, run 1, well b = 84780; control promoter light, run 1, well a = 71785; control promoter light, run 1, well b = 76145; uninduced reporter light, run 1, well a = 8010; activity call = inactive
Neb-cGP [DRSC17991] — induced reporter light, run 1, well a = 93570; induced reporter light, run 1, well b = 82395; control promoter light, run 1, well a = 1.13e5; control promoter light, run 1, well b = 96710; uninduced reporter light, run 1, well a = 5505; activity call = inactive
CG14391 [DRSC14850] — induced reporter light, run 1, well a = 50395; induced reporter light, run 1, well b = 57990; control promoter light, run 1, well a = 61495; control promoter light, run 1, well b = 54505; uninduced reporter light, run 1, well a = 2020; activity call = inactive
Gp150 [DRSC04618] — induced reporter light, run 1, well a = 24210; induced reporter light, run 1, well b = 39805; control promoter light, run 1, well a = 54730; control promoter light, run 1, well b = 73885; uninduced reporter light, run 1, well a = 2815; activity call = inactive
